From the supplement of paper PMC3334620
In all, about 33,000 sequences were measured (“E-score (-0.5 to 0.5)”: median about -8e-05, highest 2% from about 0.23 on). The list shows a part of the results.

The sequences below were run against T1, Nrg2 (UniProt P38082) (assay: PBM E-score (8-mer binding enrichment) (E-score (-0.5 to 0.5)); higher = stronger / more preferred TF binding). Details: protein concentration: 100 nM; construct: GST-full length.
T1 sequence: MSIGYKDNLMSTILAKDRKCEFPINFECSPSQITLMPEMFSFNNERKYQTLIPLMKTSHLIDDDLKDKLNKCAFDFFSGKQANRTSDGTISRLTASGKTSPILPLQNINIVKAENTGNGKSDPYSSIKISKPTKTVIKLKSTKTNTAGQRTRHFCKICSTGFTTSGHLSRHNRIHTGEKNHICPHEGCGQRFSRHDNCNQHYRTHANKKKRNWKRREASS
Method: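 Universal 'all 10-mer' protein binding microarrays (Agilent AMADID 015681) probed with GST-tagged S. cerevisiae TFs (full-length or DBD) made by in vitro transcription/translation (PURExpress), about 100-200 nM. Bound TF was detected with fluorescent anti-GST. Each ungapped 8-mer (which stands for itself and its reverse complement) is scored by the PBM enrichment score (E-score), a modified Wilcoxon-Mann-Whitney statistic from -0.5 to +0.5, computed with the Universal PBM Analysis Suite. Scale: above 0.35 generally sequence-specific binding.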

Sequence	PBM E-score
GCGTCAAA	0.102
AGTTGCTC	-0.121
CGAAACGC	-0.221
GAATGCCA	-0.0175
AGTAGCGG	-0.0087
ATCCTTTC	-0.0665
ACTGTCGA	0.074
GACGTCGA	0.0857
ACAGACAG	0.255
ACCAGTGG	-0.0539
GGCCTAAA	-0.127
ACAGTGGT	0.0526
CCGATCTA	-0.0703
GGCGGGGA	0.249
ACAGGCAT	-0.00285
AGGATCGA	-0.0712
AGCCGGAG	0.023
CCTGAACC	0.0425
GTATACAC	0.0161
CCATGTCA	-0.0662
GGCAGCCC	-0.04
GAAGGCAC	0.0779
AGCAAGCG	0.00314
GGGGACAC	-0.0864
CTTAGTGC	-0.0326

Sequence	PBM E-score
CCTTGGAC	-0.165
GTTGCGCA	0.0239
TGTCCAAA	0.0793
ATTCCGTC	-0.022
AAGACCTT	-0.0919
GTGTCCGA	-0.0516
AACCCACT	0.225
GGGGGTGA	-0.409
CACCGGGC	-0.221
AGGAGGAT	-0.134
AAGCCTAC	-0.128
CCAGCGAG	-0.0165
GCTTGTCC	0.0221
ACCAGCCT	0.0416
ATCAATTC	0.107
GTTAAAAA	-0.15
CCCGCTTC	-0.125
CTTGGAAA	0.0285
AGACCGAC	0.124
GCCACCGA	-0.137
ACGTTATC	0.034
AGCACTGA	-0.0142
ATCCTGAC	0.178
AACAGCCT	-0.00931
CCCAGGGA	0.124

Sequence	PBM E-score
TGGAGTAA	0.12
CGAAATCC	0.199
CGCTAACA	-0.0645
ACATATGC	-0.33
CGAGTATA	0.107
ATATTTTA	0.0171
TCTTGCAA	0.196
ATCAGTAG	-0.029
ATCCGACC	0.0125
AGGTAAAG	0.0795
CATGGACC	-0.0369
ACAGTTGA	0.0619
ACCCCATC	0.0787
AATTACTG	0.111
ACTGCGCA	0.134
CCCATAAC	0.0318
AGTTTATA	0.173
ATGGCGTC	-0.0451
AAACGTGC	-0.113
CGAATTAA	0.175
CCATGTCG	0.0593
AGCTTCCG	-0.0886
CCGGACCA	-0.185
ACAAGCCC	-0.113
AAGTATAT	0.12

Sequence	PBM E-score
ACTTGCGA	0.115
CCCCCGTA	-0.372
GTCGGGAA	-0.0167
CGGGCAAG	-0.0274
TACTTCAA	0.141
CTACTGAA	0.029
CCTACCTC	-0.0933
CCCATAGC	-0.197
ATGACCCA	0.117
CTATATTA	0.229
AGGGGACA	0.115
ATTGTAGG	0.164
CCCTGGAG	0.05
CCAAATTC	-0.0464
ATACGTAC	0.00735
AAGAAGTG	0.0261
ATTACAGA	0.0258
CGTTCATC	0.0838
CATGTCTC	0.096
CAAGGTAC	-0.172
CGTCTGAG	-0.0469
CGATAAGA	0.011
ATAATTGC	-0.0381
CAACGTAA	-0.00815
AGAGTTGG	-0.0532

Retrieved one by one from the list above, three records:
Sequence	PBM E-score
CTACTGAA	0.029
AAGAAGTG	0.0261
GTCGGGAA	-0.0167

Remaining list, next part:

Sequence	PBM E-score
GGTGGCAA	-0.0648
CCCTGAGC	0.236
AGCTTATA	-0.16
ACTTCACC	0.0737
ACCATCAG	-0.0223
CATTGGAA	-0.12
AATCTCCA	-0.12
CAAAGTAG	0.131
CGGGGGAC	-0.242
ACTATAGG	-0.141
ACTCGACT	-0.0411
GACTTCTA	-0.172
AGGCAGAC	-0.301
AGTGAAAT	-0.0857
CCTAAGTC	-0.1
GAGCCCAC	0.0222
CCTGAACA	0.0917
ACGGTGGA	-0.28
CCTCTAAG	-0.284
CTGGCCTC	0.0475
GGGCGTAA	-0.104
AACTTCAG	-0.0604
AGGAGTTC	-0.145
CGCAAACC	-0.0317
GTGATTGA	0.137

Sequence	PBM E-score
AAGTGTAC	-0.0336
GGTTGAAA	-0.012
CGCGAGAC	0.0211
CCCATGTA	-0.0172
AGGCATGC	-0.0808
AAACCCGA	0.129
ACCTGCTG	0.087
AAGGAAGA	-0.176
GGCCTCTA	-0.123
TCCATGGA	0.0892
GAGATAGA	-0.0355
ATCAAGTG	0.0907
AAATGCAC	0.0576
TATGCCCA	-0.0182
TAGTGTAA	0.0333
CCATATTA	0.168
CGCGCAAA	0.179
AAGGGCCA	-0.0108
TCCACTAA	0.0895
CTGGGTAA	-0.097
CGCCCGAG	0.117
ACTGCGTA	-0.188
ATAACATA	0.123
ACTCCTAA	-0.0667
AATGGCCA	-0.0344

A few values from the entries so far.
CCATATTA – PBM E-score: 0.168
GGCAGCCC – PBM E-score: -0.04

Three consecutive records from above, quoted:
Sequence	PBM E-score
CTGGGTAA	-0.097
CGCCCGAG	0.117
ACTGCGTA	-0.188

More records:

Sequence	PBM E-score
ACCCCGAT	0.00354
AGCTTTCA	-0.0208
AAGTGCTA	-0.228
GGTTGGAC	-0.311
CGACGGTC	-0.00827
CAAACAGC	0.00877
AGCGTCGA	0.244
CACCTTGC	-0.00716
AAGGGAGA	-0.19
CAAACAAA	0.115
TGGCTACA	-0.0811
CTCATCAC	-0.0539
GATCATGA	0.0344
GCTGCATA	0.0217
TCCGGTCA	-0.205
AATGTGCT	0.0416
AGGGCCTA	0.0285
CTGGCATC	-0.131
ACGCTTTC	-0.0464
AAGGTATC	-0.00466
CTGGCGTA	-0.254
CTATGGTC	-0.123
